This is an account of results in the supplement of paper PMC10735217.

This test concerns HEK293A TEAD-LUC reporter. The test is described as follows: TEAD-luciferase reporter activity (YAP activation), robust Z score vs plate; higher = stronger YAP/TEAD activation. Particulars: 24 h.

Structures are written as SMILES. Structures can show the parent of a compound that is named as a salt. Some of the results follow. Single values are uncertain here, since repeats match poorly.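 Human kidney-derived cells stably carry a construct in which eight TEAD-binding elements drive luciferase, measured by luminescence in a drug-repurposing library screen. A hit is any compound whose signal exceeds the plate mean by more than five robust Z scores.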

`O=C1OCCN1/N=C/c1ccc([N+](=O)[O-])o1` [Furazolidone]: the TEAD-luciferase reporter activity is inactive: -1.03 (compound concentration: 200 nM), inactive: 0.711 (compound concentration: 2 uM) and inactive: -2.1 (compound concentration: 10 uM).
The corresponding values for `CCC1CN(c2cc3c(cc2F)c(=O)c(C(=O)O)cn3C2CC2)CCN1` (centres undefined) are inactive: -1.49, inactive: 1.4 and inactive: -1.06.
On the same counts, the results for `OC[C@H]1CNC[C@@H](O)[C@@H]1O` are inactive: 1.71, inactive: -0.348 and inactive: 1.38.
The corresponding values for `CC(C)n1c(=O)n(C(=O)N[C@H]2C[C@H]3CC[C@@H](C2)N3C)c2ccccc21` are inactive: -2.36, inactive: 0.446 and inactive: -0.328.
On to `NS(=O)(=O)c1ccc(N2CCCCS2(=O)=O)cc1` [Sulthiame], for which the TEAD-luciferase reporter activity (compound concentration: 200 nM) is inactive: -0.27, the TEAD-luciferase reporter activity (compound concentration: 2 uM) is inactive: -2.43 and the TEAD-luciferase reporter activity (compound concentration: 10 uM) is inactive: -1.64.
On to `Nc1c(Cl)cc(C=C2NCCN2)cc1Cl` [Nemazoline hydrochloride], for which the TEAD-luciferase reporter activity is, setting by setting: (compound concentration: 200 nM) inactive: -1.51; (compound concentration: 2 uM) inactive: 0.282; (compound concentration: 10 uM) inactive: -0.525.
On the same counts, the results for `C(#CCC1(Cc2ccccc2)c2ccccc2-c2ccccc21)CN1CCCCCC1` are inactive: -1.67, inactive: -0.117 and inactive: 1.27.
Turning to `CN(C)C1C(=O)C(C(N)=O)C(=O)C2(O)C(=O)C3C(=O)c4c(O)ccc([N+](=O)[O-])c4CC3CC12` (centres undefined), the TEAD-luciferase reporter activity was inactive: -0.45 (compound concentration: 200 nM), inactive: -1.55 (compound concentration: 2 uM) and inactive: -0.594 (compound concentration: 10 uM).
Consider `CCCN(CCCCN1C(=O)CC2(CCCC2)CC1=O)C1COc2cccc(OC)c2C1` (centres undefined), for which the TEAD-luciferase reporter activity was inactive: -1.29 (compound concentration: 200 nM), inactive: 0.473 (compound concentration: 2 uM) and inactive: 2 (compound concentration: 10 uM).
On the same counts, the results for `CNC(=O)c1cnn(-c2nc(N)c3ncn([C@@H]4O[C@H](CO)[C@@H](O)[C@H]4O)c3n2)c1` [Regadenoson] are inactive: -3.37, inactive: -0.37 and active: 12.7.
Turning to `CCCC(=O)N1Cc2ccccc2CC2(CCCCN2Cc2ccncc2)C1` (centres undefined), the TEAD-luciferase reporter activity runs as follows: (compound concentration: 200 nM) inactive: -0.966; (compound concentration: 10 uM) inactive: -0.583.
With `COc1cc(C)c(S(=O)(=O)N[C@@H](CC(=O)OC(C)(C)C)C(=O)NC(Cc2ccc3c(N)nccc3c2)C(=O)N2CCCCC2)c(C)c1C` (some centres undefined), the TEAD-luciferase reporter activity is, setting by setting: (compound concentration: 200 nM) inactive: -1.23; (compound concentration: 2 uM) inactive: 0.317; (compound concentration: 10 uM) inactive: 1.71.
On the same counts, the results for `C[C@@H]1CN(c2ccc(F)cc2C(F)(F)F)CCN1S(=O)(=O)c1cccc(C(C)(O)C(F)(F)F)c1` (some centres undefined) are inactive: -1.06, inactive: -0.697 and inactive: 0.558.
On the same counts, the results for `O=C(c1ccc(F)cc1)C1CCN(CCC2Cc3ccc(F)cc3C2=O)CC1` (centres undefined) are inactive: -1.25, inactive: 0.137 and inactive: -0.668.
For the compound `CC(C)(CC(=O)N1CCCC1)NCC(=O)N1C[C@@H](F)C[C@H]1C#N`, the TEAD-luciferase reporter activity was inactive: -1.62 (compound concentration: 200 nM), inactive: -0.158 (compound concentration: 2 uM) and inactive: 2.47 (compound concentration: 10 uM).
As for `N[C@@H](Cc1c[nH]cn1)C(=O)O` [L-Histidine], the TEAD-luciferase reporter activity was inactive: -1.23 (compound concentration: 200 nM), inactive: -0.455 (compound concentration: 2 uM) and inactive: 2.25 (compound concentration: 10 uM).
The corresponding values for `C[C@H]1CN(C[C@H](Cc2ccccc2)C(=O)NCC(=O)O)CC[C@@]1(C)c1cccc(O)c1` [alvimopan] are inactive: -0.985, inactive: -0.34 and inactive: 1.33.
Take `CCOc1cccc(CN2CCCCC23Cc2ccccc2CNC3=O)c1` (centres undefined): the TEAD-luciferase reporter activity reads like this: (compound concentration: 200 nM) inactive: -2.36; (compound concentration: 10 uM) inactive: -0.631.
For `NC(=O)C1CCCc2c1[nH]c1ccc(Cl)cc21` (centres undefined) [selisistat], the TEAD-luciferase reporter activity runs as follows: (compound concentration: 200 nM) inactive: 0.125; (compound concentration: 2 uM) active: 6.11; (compound concentration: 10 uM) inactive: 1.74.
On the same counts, the results for `Cc1cc(NS(=O)(=O)c2ccc(N)cc2)n(-c2ccccc2)n1` are inactive: -0.68, inactive: -0.451 and inactive: 0.111.
The corresponding values for `CC(C)(CO)C(O)C(=O)NCCCC(=O)O` (centres undefined) [calcium hopantothenate] are inactive: -2.33, inactive: 1.24 and inactive: -0.995.
In the case of `CS(=O)(=O)Nc1ccc([N+](=O)[O-])cc1Oc1ccccc1` [nimesulide], the TEAD-luciferase reporter activity (compound concentration: 200 nM) is inactive: 0.422, the TEAD-luciferase reporter activity (compound concentration: 2 uM) was inactive: -1.72 and the TEAD-luciferase reporter activity (compound concentration: 10 uM) is inactive: 1.51.
On to `O=c1[nH]c2c(O)ccc(CCNCCCS(=O)(=O)CCOCCc3cccc4ccccc34)c2s1`, for which the TEAD-luciferase reporter activity reads like this: (compound concentration: 200 nM) inactive: -0.788; (compound concentration: 2 uM) inactive: -1.28; (compound concentration: 10 uM) inactive: -0.241.
On to `CCC(=O)OCC(=O)[C@@]1(OC(=O)CC)[C@@H](C)C[C@H]2[C@@H]3CCC4=CC(=O)C=C[C@]4(C)[C@@]3(F)[C@@H](O)C[C@@]21C` [betamethasone diproprionate], for which the TEAD-luciferase reporter activity runs as follows: (compound concentration: 200 nM) inactive: -1.29; (compound concentration: 2 uM) inactive: 0.39; (compound concentration: 10 uM) inactive: 2.53.
On the same counts, the results for `NC(=O)CN1C(=O)CC(c2ccccc2)Sc2ccccc21` (centres undefined) are inactive: -1.09, inactive: -0.205 and inactive: 1.65.
In the case of `CC(C)C(=O)N1Cc2ccccc2CC2(CCCCN2Cc2ccncc2)C1` (centres undefined), the TEAD-luciferase reporter activity runs as follows: (compound concentration: 200 nM) inactive: -0.225; (compound concentration: 10 uM) inactive: -0.568.
For the compound `OC[C@@H](O)[C@@H](O[C@@H]1O[C@H](CO)[C@H](O)[C@H](O)[C@H]1O)[C@H](O)[C@@H](O)CO`, the TEAD-luciferase reporter activity runs as follows: (compound concentration: 200 nM) inactive: -0.326; (compound concentration: 2 uM) inactive: 0.0603; (compound concentration: 10 uM) inactive: -1.35.
The corresponding values for `OCCc1ccc(OCCn2ccnc2)cc1` are inactive: -1.19, inactive: 1.14 and inactive: 0.595.
The corresponding values for `Cc1ccc(-c2nc3c(nc2-c2ccc(C)cc2)N(CCCCCCC(=O)O)CCC3)cc1` are inactive: -0.265, inactive: -1.01 and inactive: -0.129.
On the same counts, the results for `COC(=O)c1ccc(C)c(-c2cccc(NCCNCC(O)c3cccc(Cl)c3)c2)c1` (centres undefined) are inactive: -1.18, inactive: -1.26 and inactive: -0.956.
On to `C[C@H]1OC(OC2[C@@H](O)C[C@H](O[C@H]3CC[C@]4(C)C5C[C@@H](O)[C@]6(C)[C@@H](C7=CC(=O)OC7)CC[C@]6(O)[C@@H]5CC[C@H]4C3)O[C@@H]2C)C[C@H](O)C1OC1C[C@H](O)C(O[C@@H]2O[C@H](CO)[C@@H](O)[C@H](O)[C@H]2O)[C@@H](C)O1` (some centres undefined), for which the TEAD-luciferase reporter activity reads like this: (compound concentration: 200 nM) active: 7.46; (compound concentration: 2 uM) inactive: -2.24; (compound concentration: 10 uM) active: 30.9.
On the same counts, the results for `O=C(CCCN1CCN(c2ccc(F)cc2)CC1)NC1c2ccccc2CSc2ccccc21` (centres undefined) are inactive: -0.174, inactive: -1.1 and active: 5.13.
The corresponding values for `CN1CCCC(C(=O)N2c3ccccc3NC(=O)c3cccnc32)C1` (centres undefined) are inactive: -2.03, inactive: -0.771 and inactive: 0.429.
On the same counts, the results for `CN1CC(=O)NC(Cc2c(C(=O)c3ccc4c(c3)OCO4)[nH]c3ccccc23)C1=O` (centres undefined) are inactive: -1.13, inactive: 0.268 and inactive: -0.865.
